# The list does not hold the whole screen: it gathers tests that were run many times, whatever their T/C, doses with no T/C, and many T/C values between a quarter and a half above the control. Further doses and runs are listed elsewhere. T/C is the treated group as % of the vehicle group. Some doses have a count of surviving animals in place of a T/C: the source files T/C as zero there, which appears to mark a toxic dose or a test without result, not a measured value. Some doses without a T/C left all or most animals alive at the check, yet need not have been tolerated: survival well below the control is almost never listed, so the zero probably covers shortened survival too. Counts of survivors are from the toxicity check (mostly the fifth day) where no day follows; animals may have died later. Schedules are NCI's codes, read here as Q, the interval in days (D) or hours (H), X, the number of doses. Some doses were run more than once; their values stand side by side, smallest first. Where survival is the endpoint, this PubChem deposit counts one and a half times the control or more as active, and values a quarter to a half above the control carry no call in these data; other NCI protocols may use other cut-offs.
# Tested on: P388 leukemia ip, CD2F1 mice, survival T/C
# Assay: NCI In Vivo Anticancer Drug Screen. Data for tumor model P388 Leukemia (intraperitoneal) in CD2F1 (CDF1) mice
# Conditions: T/C endpoint: median survival time, higher T/C = longer survival
# [1] = dose: 100.0 mg/kg/injection, schedule: Q01DX005 (ip), vehicle: saline with Tween-80
# [2] = dose: 200.0 mg/kg/injection, schedule: Q01DX005 (ip), vehicle: saline with Tween-80
smiles,measurement,setting,value
COC(C(=O)C(O)C(C)O)C1CC2C=C3C=C(OC4CC(OC5CC(O)C(OC)C(C)O5)C(OC(C)=O)C(C)O4)C(C)C(=O)C3=C(O)C2=C(O)C1OC1CC(OC2CC(OC3CC(C)(O)C(OC(=O)C(C)C)C(C)O3)C(O)C(C)O2)C(O)C(C)O1 (stereo not given),T/C,"dose: 2.0 micrograms/kg/injection, schedule: Q01DX010 (ip), vehicle: saline",140 % of control
same,T/C,"dose: 32.0 micrograms/kg/injection, schedule: Q01DX010 (ip), vehicle: saline",140 % of control
same,survivor count,"dose: 64.0 micrograms/kg/injection, schedule: Q01DX010 (ip), vehicle: saline",6 of 6
same,survivor count,"dose: 128.0 micrograms/kg/injection, schedule: Q01DX010 (ip), vehicle: saline",4 of 6
CCCCCCCCCCCCCOC(=O)CC(C(=O)OCCCCCCCCCCCCC)S(=O)(=O)O (stereo not given),survivor count,"dose: 200.0 mg/kg/injection, schedule: Q01DX009 (ip), vehicle: Klucel (hydroxypropylcellulose) (HPC)",0 of 6
CCOC(=O)CCC1=C(C)c2cc3[n-]c(cc4nc(cc5[n-]c(cc1n2)c(CCC(=O)OCC)c5C)C=C4C)cc3C.[Ni+2],survivor count,"dose: 200.0 mg/kg/injection, schedule: Q01DX005 (ip), vehicle: Klucel (hydroxypropylcellulose) (HPC)",5 of 5
Nc1nc(N)c(N=O)c(Nc2ccc(Br)cc2)n1,survivor count,"dose: 200.0 mg/kg/injection, schedule: Q04DX003 (ip), vehicle: saline with Tween-80",4 of 6
O=P(CCC(O)c1ccccc1)(c1ccccc1)c1ccccc1 (stereo not given),survivor count,"dose: 100.0 mg/kg/injection, schedule: Q01DX009 (ip), vehicle: saline sonified",4 of 6
CCC[CH2][Sn]1([CH2]CCC)[O]C2C(O)OC(CO)C(O)C2[O]1 (stereo not given),survivor count,"dose: 6.25 mg/kg/injection, schedule: Q04DX003 (ip), vehicle: saline",5 of 6
same,survivor count,"dose: 12.5 mg/kg/injection, schedule: Q04DX003 (ip), vehicle: saline",4 of 6 and 6 of 6
same,survivor count,"dose: 25.0 mg/kg/injection, schedule: Q04DX003 (ip), vehicle: saline",0 of 6
same,survivor count,"dose: 25.0 mg/kg/injection, schedule: Q04DX003 (ip), vehicle: suspension in saline",0 of 6
same,survivor count,"dose: 50.0 mg/kg/injection, schedule: Q04DX003 (ip), vehicle: saline",0 of 6
same,survivor count,"dose: 50.0 mg/kg/injection, schedule: Q04DX003 (ip), vehicle: suspension in saline",1 of 6
same,survivor count,"dose: 100.0 mg/kg/injection, schedule: Q04DX003 (ip), vehicle: suspension in saline",0 of 6 and 3 of 6
same,survivor count,"dose: 200.0 mg/kg/injection, schedule: Q04DX003 (ip), vehicle: suspension in saline",2 of 6
same,survivor count,"dose: 400.0 mg/kg/injection, schedule: Q04DX003 (ip), vehicle: suspension in saline",0 of 6
CC1CC=CCC1C1NC(C(=O)O)CS1 (stereo not given),survivor count,"dose: 50.0 mg/kg/injection, schedule: Q01DX009 (ip), vehicle: suspension in saline",6 of 6
Cc1cccc(C)c1NC(=S)N1CCC(CCCC2CCN(C(=S)Nc3c(C)cccc3C)CC2)CC1,survivor count,"dose: 400.0 mg/kg/injection, schedule: Q04DX003 (ip), vehicle: saline with Tween-80",6 of 6
CCN=c1cc2oc3cc(NCC)c(C)cc3c(-c3ccccc3C(=O)OCC)c-2cc1C,survivor count,"dose: 3.12 mg/kg/injection, schedule: Q01DX005 (ip), vehicle: saline with Tween-80",3 of 5
same,survivor count,"dose: 6.25 mg/kg/injection, schedule: Q01DX005 (ip), vehicle: saline with Tween-80",1 of 5
same,survivor count,"dose: 12.5 mg/kg/injection, schedule: Q01DX005 (ip), vehicle: saline with Tween-80",0 of 5
same,survivor count,"dose: 50.0 mg/kg/injection, schedule: Q01DX005 (ip), vehicle: saline with Tween-80",0 of 5
same,survivor count,[1],0 of 5
same,survivor count,[2],0 of 5
Cc1cc(N=Nc2ccc(N=Nc3ccc(S(=O)(=O)O)cc3)cc2)cc(C(=O)O)c1O,survivor count,"dose: 100.0 mg/kg/injection, schedule: Q01DX009 (ip), vehicle: saline",6 of 6
CCOc1ccc(/C=C/C(C)=N/NC(N)=Nc2ccc(Cl)cc2)cc1,survivor count,[1],5 of 6
same,survivor count,[2],0 of 6
CCCCCOc1ccc(C(=O)/C(Br)=C/C(=O)O)cc1,survivor count,"dose: 100.0 mg/kg/injection, schedule: Q01DX009 (ip), vehicle: saline with Tween-80",0 of 6
same,survivor count,"dose: 200.0 mg/kg/injection, schedule: Q01DX009 (ip), vehicle: saline with Tween-80",1 of 6
NC(=O)c1csc(-c2ccc(CO)o2)n1,survivor count,[2],5 of 5
COC(CNCC(OC)OC)OC,survivor count,"dose: 12.5 mg/kg/injection, schedule: Q01DX009 (ip), vehicle: water",6 of 6
same,survivor count,"dose: 25.0 mg/kg/injection, schedule: Q01DX009 (ip), vehicle: water",6 of 6
same,survivor count,"dose: 50.0 mg/kg/injection, schedule: Q01DX009 (ip), vehicle: water",6 of 6
same,survivor count,"dose: 200.0 mg/kg/injection, schedule: Q01DX009 (ip), vehicle: water",6 of 6

# From PubChem BioAssay AID330 (DTP/NCI, 2004)
